Experimental data reported in patent US7855182B2, “Materials and methods for treatment of cancer” (The Institute of Cancer Research; Royal Cancer Hospital, priority 2004, dated 2010).
Some entries share one result that the patent states for a list of compounds.

What was measured:
[1] = tested on: GPC5 mRNA; experiment: GPC5 mRNA quantification (TaqMan) after electroporation of antisense oligonucleotides into K562 cells; format: cell-based, human; conditions: primary screen, relative to control oligonucleotide 15770, RNA extracted after 24 hours
Method: To measure the amount of mature mRNA copies of GPC5 and GPC6 the probe was designed across the exon 1-exon 2 boundary and the exon 7-exon 8 boundary respectively. Applied Biosystems' Predeveloped GAPDH (Glyceraldehyde 3-phosphate dehydrogenase) was used as an endogenous control. 25 μL multiplex PCR reactions were run using 2× Universal TaqMan® Master Mix (Applied Biosystems Pt No. 4304437), the concentration of primers and probes shown in Table 1 and 10 ng of DNA or cDNA. These samples were run in triplicate under standard operating conditions on an ABI7700 SDS TaqMan® Machine (Applied Biosystems, CA). […] Thus, the amount of GPC5 and GPC6 was measured relative to either normal genomic DNA in the case of genomic measurements and to normal muscle in the case of expression measurements. Normal genomic DNA was extracted from the blood of a healthy donor, normal muscle cDNA was produced from RNA extracted from a pool of 11 normal muscle biopsies. […]

[2] = tested on: K562 cells; experiment: Clonogenic cell survival assay in soft agar, K562 cells; format: cell-based, human; conditions: primary screen, colonies counted after 14 days
Method: Antisense or control oligonucleotides were dissolved in PBS and introduced into K562 cells by low voltage electroporation: 40 μl of appropriately diluted ASOs were combined with 360 μl of cell suspension at 2×10^7 cells/ml and cells were electroporated (Bio-Rad Gene Pulser® II Electroporation system with Pulse Controller Plus capacitance extender accessory module, Bio-Rad Laboratories Ltd, Hemel Hempstead, Herts, UK) using 300V and a capacitor value of 1000 μF, and diluted to 10 ml with complete medium. From each sample appropriate duplicate aliquots of cells were serially diluted in complete medium for assessment of cytotoxicity while the remaining cells were incubated at 37° C. for 24 hours ana RNA extracted for quantification of GPC5 and/or WT1 expression levels.
In this assay, cells are grown at low density in suspension in soft agar following treatment. […] 2 ml aliquots of diluted cells were added to polystyrene tubes (Elkay Products (UK) Ltd., Basingstoke, Hampshire, UK) containing 3 ml of medium supplemented with 20% FCS and 0.2% Agar Noble (DIFCO Laboratories, Detroit, Mich.), incubated at 37° C., and colonies containing at least 32 cells counted after 14 days. The number of colonies formed following drug treatment were compared to the number obtained following sham electroporation or a control scrambled oligonucleotide and expressed as % control treatment. […]

Substance | GPC5 levels [1] | reduction of cell survival [2]
ISIS 276107: 20 mer 2'-MOE chimeric phosphorothioate GPC5 antisense oligonucleotide, CAGCCCCCTGACAGCTCCCA (SEQ ID NO: 23) (all phosphorothioate, sugars by position and methylation of C not given here; 2'-MOE wings flank eight-deoxy central gap) | less than 30 % control levels | greater than 80%
ISIS 276119: 20 mer 2'-MOE chimeric phosphorothioate GPC5 antisense oligonucleotide, CCATCTGCAGCAGCTAATTC (SEQ ID NO: 24) (all phosphorothioate, sugars by position and methylation of C not given here; 2'-MOE wings flank eight-deoxy central gap) | less than 30 % control levels | greater than 80%
